Reference: PMC11137995
These are yes or no findings as the source states them, for the method shown. In cells and extracts the contact can be indirect. These calls come from enrichment with a bait or labelling near it, and not all partners need be listed. Each block holds one molecule with its values, some of them ahead of it.

Protein sequences, listed by entry. Tags and fused reporters are not part of them.
UniProt P45973: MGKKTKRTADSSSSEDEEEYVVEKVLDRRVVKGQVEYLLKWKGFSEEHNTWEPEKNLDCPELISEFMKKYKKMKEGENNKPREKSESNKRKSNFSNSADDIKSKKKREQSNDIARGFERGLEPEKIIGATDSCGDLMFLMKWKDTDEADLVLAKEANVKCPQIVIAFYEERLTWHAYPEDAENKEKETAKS
UniProt Q13111: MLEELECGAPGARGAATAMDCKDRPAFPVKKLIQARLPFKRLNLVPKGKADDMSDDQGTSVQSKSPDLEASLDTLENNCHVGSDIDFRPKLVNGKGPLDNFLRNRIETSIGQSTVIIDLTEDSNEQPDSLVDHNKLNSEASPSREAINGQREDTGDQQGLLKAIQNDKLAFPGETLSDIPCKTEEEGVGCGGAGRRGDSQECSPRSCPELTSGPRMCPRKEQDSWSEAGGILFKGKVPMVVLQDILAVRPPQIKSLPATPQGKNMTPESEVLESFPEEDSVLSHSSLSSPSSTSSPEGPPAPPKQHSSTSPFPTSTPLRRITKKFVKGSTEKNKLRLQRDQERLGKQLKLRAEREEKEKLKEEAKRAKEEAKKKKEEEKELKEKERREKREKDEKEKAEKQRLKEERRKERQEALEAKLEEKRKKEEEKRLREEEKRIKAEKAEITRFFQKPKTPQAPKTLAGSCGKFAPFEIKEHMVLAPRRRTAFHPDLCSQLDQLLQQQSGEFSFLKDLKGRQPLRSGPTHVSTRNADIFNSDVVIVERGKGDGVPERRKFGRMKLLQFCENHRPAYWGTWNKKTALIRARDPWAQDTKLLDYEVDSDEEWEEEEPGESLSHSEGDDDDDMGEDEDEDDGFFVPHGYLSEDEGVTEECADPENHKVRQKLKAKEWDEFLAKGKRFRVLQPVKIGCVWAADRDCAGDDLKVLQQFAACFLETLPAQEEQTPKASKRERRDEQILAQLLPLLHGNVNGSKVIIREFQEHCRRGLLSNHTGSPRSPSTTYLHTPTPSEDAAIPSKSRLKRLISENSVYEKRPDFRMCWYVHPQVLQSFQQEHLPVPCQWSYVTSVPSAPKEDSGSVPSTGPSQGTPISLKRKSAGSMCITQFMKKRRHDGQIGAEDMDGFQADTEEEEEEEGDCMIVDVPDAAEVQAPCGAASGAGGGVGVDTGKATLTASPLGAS
UniProt Q13547: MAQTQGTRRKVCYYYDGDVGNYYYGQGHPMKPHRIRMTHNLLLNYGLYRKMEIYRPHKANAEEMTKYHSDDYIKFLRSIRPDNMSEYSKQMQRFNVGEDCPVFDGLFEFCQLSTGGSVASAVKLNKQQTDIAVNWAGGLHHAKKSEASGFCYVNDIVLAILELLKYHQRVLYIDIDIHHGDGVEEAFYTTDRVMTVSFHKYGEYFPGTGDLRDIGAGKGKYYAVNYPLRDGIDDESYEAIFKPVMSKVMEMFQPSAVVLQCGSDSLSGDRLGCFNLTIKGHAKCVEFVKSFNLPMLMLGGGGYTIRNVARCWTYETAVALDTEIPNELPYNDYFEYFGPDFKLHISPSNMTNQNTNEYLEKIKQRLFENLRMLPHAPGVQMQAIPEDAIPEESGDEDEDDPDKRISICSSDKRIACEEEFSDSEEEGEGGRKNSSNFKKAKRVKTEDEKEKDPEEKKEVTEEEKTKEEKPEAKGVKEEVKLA

Biological target: full-length CBX5 (HA tagged, NM_001127322.1), encoding Heterochromatin Protein 1α (human) (UniProt P45973)
Assay: affinity purification with mass spectrometry; IP samples of HEK293T cells transfected with the HP1α expression vectors and control vectors, analysed by ESI-MS; IP buffer 20 mM Tris-HCl pH 7.4, 150 mM NaCl, 1 mM EDTA, 1% NP-40; protein A + G agarose beads

binding: binds
Molecule: Chromatin Assembly Factor 1 Subunit A (from UniProt Q13111 1-956)

binding: binds
Molecule: HDAC1 detected by ESI-MS in the HP1α IP sample of HEK293T cells (from UniProt Q13547 1-482) (enzyme)

binding: binds
B1: Pogo Transposable Element with ZNF Domain (protein, UniProt Q7Z3K3 1-1410)
chain: MADTDLFMECEEEELEPWQKISDVIEDSVVEDYNSVDKTTTVSVSQQPVSAPVPIAAHASVAGHLSTSTTVSSSGAQNSDSTKKTLVTLIANNNAGNPLVQQGGQPLILTQNPAPGLGTMVTQPVLRPVQVMQNANHVTSSPVASQPIFITTQGFPVRNVRPVQNAMNQVGIVLNVQQGQTVRPITLVPAPGTQFVKPTVGVPQVFSQMTPVRPGSTMPVRPTTNTFTTVIPATLTIRSTVPQSQSQQTKSTPSTSTTPTATQPTSLGQLAVQSPGQSNQTTNPKLAPSFPSPPAVSIASFVTVKRPGVTGENSNEVAKLVNTLNTIPSLGQSPGPVVVSNNSSAHGSQRTSGPESSMKVTSSIPVFDLQDGGRKICPRCNAQFRVTEALRGHMCYCCPEMVEYQKKGKSLDSEPSVPSAAKPPSPEKTAPVASTPSSTPIPALSPPTKVPEPNENVGDAVQTKLIMLVDDFYYGRDGGKVAQLTNFPKVATSFRCPHCTKRLKNNIRFMNHMKHHVELDQQNGEVDGHTICQHCYRQFSTPFQLQCHLENVHSPYESTTKCKICEWAFESEPLFLQHMKDTHKPGEMPYVCQVCQYRSSLYSEVDVHFRMIHEDTRHLLCPYCLKVFKNGNAFQQHYMRHQKRNVYHCNKCRLQFLFAKDKIEHKLQHHKTFRKPKQLEGLKPGTKVTIRASRGQPRTVPVSSNDTPPSALQEAAPLTSSMDPLPVFLYPPVQRSIQKRAVRKMSVMGRQTCLECSFEIPDFPNHFPTYVHCSLCRYSTCCSRAYANHMINNHVPRKSPKYLALFKNSVSGIKLACTSCTFVTSVGDAMAKHLVFNPSHRSSSILPRGLTWIAHSRHGQTRDRVHDRNVKNMYPPPSFPTNKAATVKSAGATPAEPEELLTPLAPALPSPASTATPPPTPTHPQALALPPLATEGAECLNVDDQDEGSPVTQEPELASGGGGSGGVGKKEQLSVKKLRVVLFALCCNTEQAAEHFRNPQRRIRRWLRRFQASQGENLEGKYLSFEAEEKLAEWVLTQREQQLPVNEETLFQKATKIGRSLEGGFKISYEWAVRFMLRHHLTPHARRAVAHTLPKDVAENAGLFIDFVQRQIHNQDLPLSMIVAIDEISLFLDTEVLSSDDRKENALQTVGTGEPWCDVVLAILADGTVLPTLVFYRGQMDQPANMPDSILLEAKESGYSDDEIMELWSTRVWQKHTACQRSKGMLVMDCHRTHLSEEVLAMLSASSTLPAVVPAGCSSKIQPLDVCIKRTVKNFLHKKWKEQAREMADTACDSDVLLQLVLVWLGEVLGVIGDCPELVQRSFLVASVLPGPDGNINSPTRNADMQEELIASLEEQLKLSGEHSESSTPRPRSSPEETIEPESLHQLFEGESETESFYGFEEADLDLMEI
